Measured values: patent publication US20120107330A1 (published 2012)
These are yes or no findings as the source states them, for the method shown. Some results given as binding are weak or reduced against the parent protein; the word gives no strength. Ends that are not written are not given here.

Sequences of proteins named here, by UniProt entry; tags and fusion partners are left off. A change or cut given only in a name is not applied to a line headed by its entry. Residues count along the entry.
UniProt P19438: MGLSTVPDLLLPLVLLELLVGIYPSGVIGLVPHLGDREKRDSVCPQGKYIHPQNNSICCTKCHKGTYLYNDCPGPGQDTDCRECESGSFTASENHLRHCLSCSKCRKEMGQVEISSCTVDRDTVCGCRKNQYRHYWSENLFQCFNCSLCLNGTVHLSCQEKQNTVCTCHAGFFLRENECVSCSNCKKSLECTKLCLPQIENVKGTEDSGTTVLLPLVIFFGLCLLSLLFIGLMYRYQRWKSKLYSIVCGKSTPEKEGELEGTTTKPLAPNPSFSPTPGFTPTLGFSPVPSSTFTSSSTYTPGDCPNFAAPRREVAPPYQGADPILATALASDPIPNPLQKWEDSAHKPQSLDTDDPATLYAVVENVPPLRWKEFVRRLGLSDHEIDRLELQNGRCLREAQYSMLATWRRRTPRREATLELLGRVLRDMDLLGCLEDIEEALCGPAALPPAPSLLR
UniProt P07724, residues 25-608: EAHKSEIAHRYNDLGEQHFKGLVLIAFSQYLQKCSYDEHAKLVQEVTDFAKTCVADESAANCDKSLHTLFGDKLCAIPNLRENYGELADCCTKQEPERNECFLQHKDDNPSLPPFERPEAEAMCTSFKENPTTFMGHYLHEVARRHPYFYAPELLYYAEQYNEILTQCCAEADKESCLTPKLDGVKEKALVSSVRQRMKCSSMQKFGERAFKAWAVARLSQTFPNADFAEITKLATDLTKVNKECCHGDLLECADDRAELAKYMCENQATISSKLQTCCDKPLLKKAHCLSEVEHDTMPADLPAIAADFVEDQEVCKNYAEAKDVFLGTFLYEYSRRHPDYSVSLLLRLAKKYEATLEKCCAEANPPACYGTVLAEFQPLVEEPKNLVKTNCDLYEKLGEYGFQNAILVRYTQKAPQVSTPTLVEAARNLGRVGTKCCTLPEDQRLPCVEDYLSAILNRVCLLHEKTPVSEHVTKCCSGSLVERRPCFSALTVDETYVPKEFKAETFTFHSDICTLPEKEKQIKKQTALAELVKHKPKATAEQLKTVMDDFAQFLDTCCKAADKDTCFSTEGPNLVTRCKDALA

T1: mouse TNFR1 (recombinant, R&D Systems cat no. 425-R1-050/CF, biotinylated) (mouse) (UniProt P25118)
T1 sequence (biotinylated with EZ-Link NHS-LC-LC-biotin, looked up): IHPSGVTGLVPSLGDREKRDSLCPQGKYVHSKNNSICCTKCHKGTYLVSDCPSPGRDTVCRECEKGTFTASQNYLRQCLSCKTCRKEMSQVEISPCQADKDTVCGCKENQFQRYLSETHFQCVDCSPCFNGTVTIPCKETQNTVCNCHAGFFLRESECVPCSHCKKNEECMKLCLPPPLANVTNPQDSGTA


Tests used:
[1] = target: TNFR1-Fc fusion (R&D Systems Cat #372-RI) (human) (UniProt P19438); assay: receptor binding assay: TNFR1-Fc on anti-IgG beads, dAb titrated, blocked ligand TNFα detected with biotinylated anti-TNFα and fluorescent streptavidin (FMAT)
[2] = target: TNFR1-Fc fusion (R&D Systems Cat #372-RI) (human) (UniProt P19438); assay: receptor binding assay: TNFR1-Fc on beads incubated with the dAb, then with TNFα (blocked ligand); % inhibition of TNFα binding to TNFR1
[3] = target: T1, mouse TNFR1 (recombinant, R&D Systems cat no. 425-R1-050/CF, biotinylated) (mouse); assay: BIAcore, mouse TNFR1 on chip
[4] = target: T1, mouse TNFR1 (recombinant, R&D Systems cat no. 425-R1-050/CF, biotinylated) (mouse); assay: BIAcore, biotinylated mouse TNFR1 on SA chip, dAb injected alone and after DOM1m-21-23 (concentrations not given)
[5] = target: T1, mouse TNFR1 (recombinant, R&D Systems cat no. 425-R1-050/CF, biotinylated) (mouse); assay: BIAcore, mouse TNFR1 on SA chip, after DOM1m-21-23 as competitor
[6] = target: T1, mouse TNFR1 (recombinant, R&D Systems cat no. 425-R1-050/CF, biotinylated) (mouse); assay: BIAcore, mouse TNFR1 on SA chip
[7] = target: T1, mouse TNFR1 (recombinant, R&D Systems cat no. 425-R1-050/CF, biotinylated) (mouse); assay: BIAcore, biotinylated mouse TNFR1 on SA chip, dAb at 1 µM
[8] = target: T1, mouse TNFR1 (recombinant, R&D Systems cat no. 425-R1-050/CF, biotinylated) (mouse); assay: BIAcore, mouse TNFR1 on SA chip, dAb at 1 µM
[9] = target: T2, mouse serum albumin (MSA, Sigma-Aldrich) (mouse, UniProt P07724 25-608); assay: BIAcore, MSA coupled to CM5 chip (EDC/NHS), construct at 1 µM
T2 construct: also called mouse albumin

[10] = target: T2, mouse serum albumin (MSA, Sigma-Aldrich); assay: BIAcore off-rates, MSA on chip, AlbudAb in the fusion
[11] = target: T1, mouse TNFR1 (recombinant, R&D Systems cat no. 425-R1-050/CF, biotinylated) (mouse); assay: BIAcore, biotinylated mouse TNFR1 on SA chip (concentration not given)

| binding [6] | Binder | also measured |
| --- | --- | --- |
| binds | DOM1h-574-72 (other, VH dAb; expressed in E. coli, purified on Protein A) VH: EVQLLESGGGLVQPGGSLRLSCAASGFTFVKYSMGWVRQAPGKGLEWVSQISNTADRTYYAHSVKGRFTISRDNSKNTLYLQMNSLRAEDTAVYYCAIYTGRWVPFEYWGQGTLVTVSS |  |
| binds | DOM1h-574-156 (other, VH dAb) VH: EVQLLESGGGLVQPGGSLRLSCAASGFTFFKYSMGWVRQAPGKGLEWVSQISDTADRTYYAHSVKGRFTISRDNSKNTLYLQMNSLRAEDTAVYYCAIYTGRWVPFEYWGQGTLVTVSS |  |
| binds | DOM1h-574-138 (other, VH dAb) VH: EVQLLESGGGLVQPGGSLRLSCAASGFTFFKYSMGWVRQAPGKGLEWVSQISDTADRTYYAHSVKGRFTISRDNSKNTLYLQMNSLRAEDTAVYYCAIYTGRWAPFEYWGQGTLVTVSS |  |
| binds | DOM1h-574-139 (other, VH dAb) VH: EVQLLESGGGLVQPGGSLRLSCAASGFTFLKYSMGWVRQAPGKGLEWVSQISDTADRTYYAHSVKGRFTISRDNSKNTLYLQMNSLRAEDTAVYYCAIYTGRWAPFEYWGQGTLVTVSS |  |
| binds | DOM1h-574-162 (other, VH dAb) VH: EVQLLESGGGLVQPGGSLRLSCAASGFTFFKYSMGWVRQAPGKGLEWVSQISDTADRTYYSHSVKGRFTISRDNSKNTLYLQMNSLRAEDTAVYYCAIYTGRWVPFEYWGQGTLVTVSS |  |
| binds | DOM1h-574-155 (other, VH dAb) VH: EVQLLESGGGLVQPGGSLRLSCAASGFTFLKYSMGWVRQAPGKGLEWVSQISDTADRTYYAHSVKGRFTISRDNSKNTLYLQMNSLRAEDTAVYYCAIYTGRWVPFEYWGQGTLVTVSS |  |

More lines, now with the values behind:

| Binder | binding [6] | also measured |
| --- | --- | --- |
| DOM1h-131-511 (other, also called control dAb) VH: EVQLLESGGGLVQPGGSLRLSCAASGFTFAHETMVWVRQAPGKGLEWVSHIPPVGQDPFYADSVKGRFTISRDNSKNTLYLQMNSLRAEDTAVYYCALLPKRGPWFDYWGQGTLVTVSS |  | binding [1]: binds; binding [2]: binds |
| DOM1h-574-16 (other, VH dAb; also called DOM1h-57-16 [sic]; the DOM0100 dAb) VH: EVQLLESGGGLVQPGGSLRLSCAASGFTFVKYSMGWVRQAPGKGPEWVSQISNTGDRTYYADSVKGRFTISRDNSKNTLYLQMNSLRAEDTAVYYCAIYTGRWEPFDYWGQGTLVTVSS | binds | binding [3]: binds; binding [4]: binds; binding [5]: binds; binding [7]: binds; binding [8]: binds |
| DOM1h-574-109 (other, VH dAb) VH: EVQLLESGGGLVQPGGSLRLSCAASGFTFVKYSMGWVRQAPGKGLEWVSQISDTADRTYYAHSVKGRFTISRDNSKNTLYLQMNSLRAEDTAVYYCAIYTGRWVPFEYWGQGTLVTVSS | binds |  |
| DOM1h-574-133 (other, VH dAb) VH: EVQLLESGGGLVQPGGSLRLSCAASGFTFVKYSMGWVRQAPGKGLEWVSQISDTADRTYYDHSVKGRFTISRDNSKNTLYLQMNSLRAEDTAVYYCAIYTGRWEPFVYWGQGTLVTVSS | binds |  |
| DOM1h-574-135 (other, VH dAb) VH: EVQLLESGGGLVQPGGSLRLSCAASGFTFVKYSMGWVRQAPGKGLEWVSQISDTADRTYYTHSVKGRFTISRDNSKNTLYLQMNSLRAEDTAVYYCAIYTGRWVPFEYWGQGTLVTVSS | binds |  |
| DMS0191 (bispecific antibody, anti-TNFR1 dAb / AlbudAb in-line fusion) EVQLLESGGGLVQPGGSLRLSCAASGFTFVKYSMGWVRQAPGKGPEWVSQISNTGDRTYYADSVKGRFTISRDNSKNTLYLQMNSLRAEDTAVYYCAIYTGRWEPFDYWGQGTLVTVSSASTDIQMTQSPSSLSASVGDRVTITCRASQSIIKHLKWYQQKPGKAPKLLIYGASRLQSGVPSRFSGSGSGTDFTLTISSLQPEDFATYYCQQGTRWPQTFGQGTKVEIKRAAAEQKLISEEDLN |  | binding [9]: binds; binding [10]: binds |
| DOM1m-21-23 (other, VH dAb; also called DOM1m-12-23 [sic]) VH: EVQLLESGGGLVQPGGSLRLSCAASGFTFNRYSMGWLRQAPGKGLEWVSRIDSYGRGTYYEDPVKGRFSISRDNSKNTLYLQMNSLRAEDTAVYYCAKISQFGSNAFDYWGQGTQVTVSS |  | binding [11]: binds |
